# Reference: the supplement of paper PMC8728848
# The other results are listed elsewhere or left out.
# B1: Blon0732mut (Bifidobacterium longum) (protein)
# chain: MPTSEHKADDATRHLTLIPAPVTLEYTHGTALIGPLVTIEDADQSWETLPIEQLSDELRHRYGVTVLRRRTHGTVISLGLDSRLAHDEYTLDVSESEGIRVRGGGESGLRYGLQTLRQIIGQTSRAIPCLHIQDKPAFAVRAYSLDVTRGRVPTMEFLTWFVDQLALYKYNQFQLYVEHAFAFVELSEAWRGTDPLTAADITYLDEYCARRGIELVPSLATFGHMYMNLRTREHRGLGEFPEDADRPFSFIERMEHHTLNAADPKAHDFASRLIEEYAPLFRSKSFNIGGNETFDLGRGRSAQDAPEAGRDELYAGFVRDLCETLARHGRQPMLWADIALESPRTMDLLPGDITMLNWMYEPQIDESKIQTIATQGRRQFVCPAVRAWSRFFPDYAGAWLNTYHMALAGTKYDAEGMVVTDWGDYGHVNDPRLSVPGLCYGAQNAWNPIEIDAHEMNRRISALVYGDESGRIMDCLARIDSDGVSFPWDLAVQVLELEYGSGTGALNMDVAACMERSSGGKLTLDRTLGCDDARRRMLQWNRERIERRRDCDQVLRDCGDAFAGLDKGGLTAEFLSVMLDGQRLFNELGEELLALADGKDVGSGANRLAADLELWFERYRAQWLSVGRHAELARIAHVVWSLADILRRGAL
# Legend:
# Assay in all cases: glycan array binding signal (z-score within array); higher = stronger binding
# Conditions in all cases: glycan notation: IUPAC condensed, linker removed
# [1] = target: Gal(a1-3)Gal(b1-4)GlcNAc(b1-2)Man(a1-3)[Gal(a1-3)Gal(b1-4)GlcNAc(b1-2)Man(a1-6)]Man(b1-4)GlcNAc(b1-4)GlcNAc
# Outline: (§1)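 Arrays were curated from the Consortium for Functional Glycomics database, 3228 in total, and kept only where the protein sequence was available. Binding is expressed as a within-array Z-score. This score was averaged across arrays of the same protein sequence at different concentrations or buffers and across linkers, and negative values can be read as non-binding.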
# [2] = target: Gal(a1-3)Gal(b1-4)GlcNAc(b1-3)GalNAc
# Outline: as §1
# [3] = target: Gal(a1-3)Gal(b1-4)GlcNAc(b1-6)GalNAc
# Outline: as §1
# [4] = target: Gal(a1-3)Gal(b1-4)[Fuc(a1-3)]GlcNAc
# Outline: as §1
# [5] = target: Gal(a1-3)Gal(b1-4)[Fuc(a1-3)]GlcNAc(b1-2)Man(a1-3)[Gal(a1-3)Gal(b1-4)[Fuc(a1-3)]GlcNAc(b1-2)Man(a1-6)]Man(b1-4)GlcNAc(b1-4)GlcNAc
# Outline: as §1
# Gal(a1-3)GalNAc = target: Gal(a1-3)GalNAc
# Outline: as §1
# [6] = target: Gal(a1-3)[Gal(a1-4)]Gal(b1-4)GlcNAc
# Outline: as §1
# [7] = target: Gal(a1-4)Gal(b1-3)GlcNAc(b1-2)Man(a1-3)[Gal(a1-4)Gal(b1-3)GlcNAc(b1-2)Man(a1-6)]Man(b1-4)GlcNAc(b1-4)GlcNAc
# Outline: as §1
# Gal(a1-4)Gal(b1-4)Glc = target: Gal(a1-4)Gal(b1-4)Glc
# Outline: as §1
# Gal(a1-4)Gal(b1-4)GlcNAc = target: Gal(a1-4)Gal(b1-4)GlcNAc
# Outline: as §1
# [8] = target: Gal(a1-4)Gal(b1-4)GlcNAc(b1-2)Man(a1-3)[Gal(a1-4)Gal(b1-4)GlcNAc(b1-2)Man(a1-6)]Man(b1-4)GlcNAc(b1-4)GlcNAc
# Outline: as §1
# [9] = target: Gal(a1-4)Gal(b1-4)GlcNAc(b1-3)Gal(b1-4)Glc
# Outline: as §1
# Gal(a1-4)GlcNAc = target: Gal(a1-4)GlcNAc
# Outline: as §1
# Gal(a1-6)Glc = target: Gal(a1-6)Glc
# Outline: as §1
# Gal(b1-2)Gal = target: Gal(b1-2)Gal
# Outline: as §1
# Gal(b1-3)Gal = target: Gal(b1-3)Gal
# Outline: as §1
# Gal(b1-3)Gal(b1-4)GlcNAc = target: Gal(b1-3)Gal(b1-4)GlcNAc
# Outline: as §1
# Gal(b1-3)GalNAc = target: Gal(b1-3)GalNAc
# Outline: as §1
# [10] = target: Gal(b1-3)GalNAc(a1-3)[Fuc(a1-2)]Gal(b1-4)Glc
# Outline: as §1
# [11] = target: Gal(b1-3)GalNAc(a1-3)[Fuc(a1-2)]Gal(b1-4)GlcNAc
# Outline: as §1
# Gal(b1-3)GalNAc(b1-3)Gal = target: Gal(b1-3)GalNAc(b1-3)Gal
# Outline: as §1
# [12] = target: Gal(b1-3)GalNAc(b1-3)Gal(a1-4)Gal(b1-4)Glc
# Outline: as §1
# [13] = target: Gal(b1-3)GalNAc(b1-4)Gal(b1-4)Glc
# Outline: as §1
# [14] = target: Gal(b1-3)GalNAc(b1-4)[Neu5Ac(a2-3)]Gal(b1-4)Glc
# Outline: as §1
# Gal(b1-3)GlcNAc = target: Gal(b1-3)GlcNAc
# Outline: as §1
# [15] = target: Gal(b1-3)GlcNAc(a1-3)Gal(b1-4)GlcNAc
# Outline: as §1
# [16] = target: Gal(b1-3)GlcNAc(a1-6)Gal(b1-4)GlcNAc
# Outline: as §1
# Gal(b1-3)GlcNAc(b1-2)Man = target: Gal(b1-3)GlcNAc(b1-2)Man
# Outline: as §1
# [17] = target: Gal(b1-3)GlcNAc(b1-2)Man(a1-3)[Gal(b1-3)GlcNAc(b1-2)Man(a1-6)]Man(b1-4)GlcNAc(b1-4)GlcNAc
# Outline: as §1
# [18] = target: Gal(b1-3)GlcNAc(b1-2)Man(a1-3)[Gal(b1-3)GlcNAc(b1-2)Man(a1-6)]Man(b1-4)GlcNAc(b1-4)[Fuc(a1-6)]GlcNAc
# Outline: as §1
binder,measurement,setting,value
B1,glycan array binding signal (z-score),[1],0.086
same,glycan array binding signal (z-score),[2],-0.353
same,glycan array binding signal (z-score),[3],-0.671
same,glycan array binding signal (z-score),[4],0.387
same,glycan array binding signal (z-score),[5],0.593
same,glycan array binding signal (z-score),Gal(a1-3)GalNAc,1.03
same,glycan array binding signal (z-score),[6],5.9
same,glycan array binding signal (z-score),[7],-0.39
same,glycan array binding signal (z-score),Gal(a1-4)Gal(b1-4)Glc,2.6
same,glycan array binding signal (z-score),Gal(a1-4)Gal(b1-4)GlcNAc,0.631
same,glycan array binding signal (z-score),[8],0.138
same,glycan array binding signal (z-score),[9],-0.423
same,glycan array binding signal (z-score),Gal(a1-4)GlcNAc,-0.94
same,glycan array binding signal (z-score),Gal(a1-6)Glc,0.677
same,glycan array binding signal (z-score),Gal(b1-2)Gal,-0.592
same,glycan array binding signal (z-score),Gal(b1-3)Gal,-0.514
same,glycan array binding signal (z-score),Gal(b1-3)Gal(b1-4)GlcNAc,1.7
same,glycan array binding signal (z-score),Gal(b1-3)GalNAc,0.05
same,glycan array binding signal (z-score),[10],-0.585
same,glycan array binding signal (z-score),[11],0.141
same,glycan array binding signal (z-score),Gal(b1-3)GalNAc(b1-3)Gal,-0.712
same,glycan array binding signal (z-score),[12],1.32
same,glycan array binding signal (z-score),[13],1.73
same,glycan array binding signal (z-score),[14],-0.773
same,glycan array binding signal (z-score),Gal(b1-3)GlcNAc,0.544
same,glycan array binding signal (z-score),[15],-0.24
same,glycan array binding signal (z-score),[16],-0.007
same,glycan array binding signal (z-score),Gal(b1-3)GlcNAc(b1-2)Man,-0.204
same,glycan array binding signal (z-score),[17],0.197
same,glycan array binding signal (z-score),[18],-0.917

# Random excerpt: two records from the list, in no set order.
binder,measurement,setting,value
B1,glycan array binding signal (z-score),[13],1.73
same,glycan array binding signal (z-score),[17],0.197
